In publication PMC4599859:
Numbering of substitutions follows the chain as printed. No constants are given. Whether binding was seen depends on the method and setting. Binding calls can cover weak binding; strength is not graded here. Sequences can lack the tags named with a protein. For some assays here: Binding seen in cells or lysates may run through a third protein.

By UniProt entry, the sequences of proteins in these tests, tags left out. Where a name states a change or a piece, a line headed by the entry shows the natural chain unless it says otherwise.
UniProt Q9FKN7: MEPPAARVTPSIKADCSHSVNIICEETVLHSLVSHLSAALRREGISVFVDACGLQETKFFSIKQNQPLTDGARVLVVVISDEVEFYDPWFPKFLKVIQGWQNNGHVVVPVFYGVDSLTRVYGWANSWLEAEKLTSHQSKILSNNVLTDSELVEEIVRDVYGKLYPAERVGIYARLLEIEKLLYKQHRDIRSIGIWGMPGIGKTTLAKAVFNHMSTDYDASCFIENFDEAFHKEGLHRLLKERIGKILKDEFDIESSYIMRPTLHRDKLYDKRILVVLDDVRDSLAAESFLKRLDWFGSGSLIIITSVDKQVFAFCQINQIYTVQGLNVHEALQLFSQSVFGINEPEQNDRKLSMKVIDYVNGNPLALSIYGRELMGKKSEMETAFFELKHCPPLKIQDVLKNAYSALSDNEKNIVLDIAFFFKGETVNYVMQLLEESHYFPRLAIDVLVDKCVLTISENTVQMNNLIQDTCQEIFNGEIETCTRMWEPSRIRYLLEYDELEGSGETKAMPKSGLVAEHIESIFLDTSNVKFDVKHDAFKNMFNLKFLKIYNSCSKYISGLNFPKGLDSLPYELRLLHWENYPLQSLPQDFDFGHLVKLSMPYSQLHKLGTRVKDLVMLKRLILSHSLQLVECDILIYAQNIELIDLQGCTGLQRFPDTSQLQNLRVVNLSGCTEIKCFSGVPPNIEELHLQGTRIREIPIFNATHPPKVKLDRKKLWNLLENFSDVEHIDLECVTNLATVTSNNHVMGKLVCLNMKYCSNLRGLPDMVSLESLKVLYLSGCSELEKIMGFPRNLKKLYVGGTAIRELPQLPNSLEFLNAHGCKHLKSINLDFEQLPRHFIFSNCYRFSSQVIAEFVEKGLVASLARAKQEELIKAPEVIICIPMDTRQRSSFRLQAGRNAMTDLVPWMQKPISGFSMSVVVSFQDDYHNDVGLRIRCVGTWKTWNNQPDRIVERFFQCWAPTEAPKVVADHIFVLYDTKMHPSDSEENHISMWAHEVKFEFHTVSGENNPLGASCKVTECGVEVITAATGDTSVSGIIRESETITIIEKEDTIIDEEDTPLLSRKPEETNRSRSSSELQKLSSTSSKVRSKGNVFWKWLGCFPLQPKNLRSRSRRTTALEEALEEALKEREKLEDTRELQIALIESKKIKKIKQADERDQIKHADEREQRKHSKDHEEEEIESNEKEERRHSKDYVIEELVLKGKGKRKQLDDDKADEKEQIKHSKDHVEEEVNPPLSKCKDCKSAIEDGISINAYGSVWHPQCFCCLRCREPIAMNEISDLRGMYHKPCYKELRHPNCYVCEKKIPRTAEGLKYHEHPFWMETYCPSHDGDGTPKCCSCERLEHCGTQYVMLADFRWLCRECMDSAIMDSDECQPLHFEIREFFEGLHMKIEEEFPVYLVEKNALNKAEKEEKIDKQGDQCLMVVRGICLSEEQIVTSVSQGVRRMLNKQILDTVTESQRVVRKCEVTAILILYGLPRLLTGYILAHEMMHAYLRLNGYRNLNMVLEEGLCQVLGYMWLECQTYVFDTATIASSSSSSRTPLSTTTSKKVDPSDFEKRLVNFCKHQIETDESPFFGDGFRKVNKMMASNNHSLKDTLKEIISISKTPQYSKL

B1: HA-Flag-IBR5 (35S:HA-Flag-IBR5) in Arabidopsis protoplasts (protein, UniProt Q84JU4 1-257)
chain: MRKRERENPCSICGHYHKYEEGEVCGVCGHCMPVSSDTVAPQQVHVSAFPSEILPEFLYLGSYDNASRSELLKTQGISRVLNTVPMCQNLYRNSFTYHGLDNEKVLQFDDAIKFLDQCEKDKARVLVHCMSGKSRSPAVVVAYLMKRKGWRLAESHQWVKQRRPSTDISPEFYQQLQEFEQGIFGSEMMSAMNINDAPTFGFGFPKIDNQAQAPVFNNAPTSSIFSSPASSIPPQEFTFGATPPKPTTGGDIAMDGS
B2: SGT1b-Flag (Super:SGT1b-Flag) in Arabidopsis (protein, UniProt Q9SUT5 1-358)
chain: MAKELAEKAKEAFLDDDFDVAVDLYSKAIDLDPNCAAFFADRAQANIKIDNFTEAVVDANKAIELEPTLAKAYLRKGTACMKLEEYSTAKAALEKGASVAPNEPKFKKMIDECDLRIAEEEKDLVQPMPPSLPSSSTTPLATEADAPPVPIPAAPAKPMFRHEFYQKPEEAVVTIFAKKVPKENVTVEFGEQILSVVIDVAGEEAYHLQPRLFGKIIPEKCRFEVLSTKVEIRLAKAEIITWASLEYGKGQSVLPKPNVSSALSQRPVYPSSKPAKDWDKLEAEVKKQEKDEKLDGDAAMNKFFSDIYSSADEDMRRAMNKSFAESNGTVLSTNWKEVGTKKVESTPPDGMELKKWEY

Legend:
[1] = molecular target: T1, IBR5 (Indole-3-Butyric Acid Response 5) fused with the pGBKT7 vector (Arabidopsis thaliana) (UniProt Q84JU4); test: two-hybrid; IBR5 or IBR5^C129S in pGBKT7 (bait), R protein domains in pGADT7 (prey); yeast AH109; interaction tested on SD-Trp-Leu-His-Ade medium
T1 sequence: B1 chain

[2] = molecular target: T2, IBR5^C129S fused with the pGBKT7 vector (Arabidopsis thaliana) (UniProt Q84JU4); test: as above
T2 sequence: B1 chain with C129S

[3] = molecular target: T3, IBR5-Myc (Super:IBR5-Myc) in transgenic Arabidopsis plants (Arabidopsis thaliana) (UniProt Q84JU4); test: co-IP; total protein of transgenic Arabidopsis plants expressing Super:IBR5-Myc (with or without Super:SGT1b-Flag); anti-Myc immunoprecipitation; blot with anti-HSP90 or anti-Flag
T3 sequence: B1 chain

[4] = molecular target: T4, cLuc-IBR5 (Arabidopsis thaliana) (UniProt Q84JU4); test: split reporter; firefly luciferase complementation imaging (LCI) in N. benthamiana leaves; HSP90 or SGT1b on nLuc, IBR5 on cLuc
T4 sequence: B1 chain

[5] = molecular target: Myc-tagged TIR domain of CHS3 (Super:TIR-Myc) (Arabidopsis thaliana) (UniProt Q9FKN7); test: co-IP; two constructs co-expressed in Arabidopsis mesophyll protoplasts; extract in 150 mM NaCl, 10 mM Tris-HCl pH 7.6, 2 mM EDTA, 0.5% NP-40; anti-Myc beads, 4°C, 2 h; blot with anti-HA or anti-Flag

Molecule	binding [1]	binding [2]	binding [5]	other results
TIR domain of RRS1 fused with the pGADT7 vector (Arabidopsis thaliana) (domain or fragment)	binds	binds	–	–
endogenous HSP90	–	–	–	binding [3]: binds
HSP90-nLuc (Arabidopsis thaliana)	–	–	–	binding [4]: binds
CC domain of RPM1 fused with the pGADT7 vector (Arabidopsis thaliana) (domain or fragment)	no binding	no binding	–	–
B1	–	–	binds	–
B2	–	–	binds	–
